Measured values as given in article doi:10.1101/2025.10.07.680889.
These are yes or no findings as the source states them, for the method shown. Binding seen in cells or lysates may run through a third protein. Some entries that bind do so weakly or less than the wild type.

Protein sequences, listed by entry. Tags and fused reporters are not part of them.
UniProt Q9UKV8: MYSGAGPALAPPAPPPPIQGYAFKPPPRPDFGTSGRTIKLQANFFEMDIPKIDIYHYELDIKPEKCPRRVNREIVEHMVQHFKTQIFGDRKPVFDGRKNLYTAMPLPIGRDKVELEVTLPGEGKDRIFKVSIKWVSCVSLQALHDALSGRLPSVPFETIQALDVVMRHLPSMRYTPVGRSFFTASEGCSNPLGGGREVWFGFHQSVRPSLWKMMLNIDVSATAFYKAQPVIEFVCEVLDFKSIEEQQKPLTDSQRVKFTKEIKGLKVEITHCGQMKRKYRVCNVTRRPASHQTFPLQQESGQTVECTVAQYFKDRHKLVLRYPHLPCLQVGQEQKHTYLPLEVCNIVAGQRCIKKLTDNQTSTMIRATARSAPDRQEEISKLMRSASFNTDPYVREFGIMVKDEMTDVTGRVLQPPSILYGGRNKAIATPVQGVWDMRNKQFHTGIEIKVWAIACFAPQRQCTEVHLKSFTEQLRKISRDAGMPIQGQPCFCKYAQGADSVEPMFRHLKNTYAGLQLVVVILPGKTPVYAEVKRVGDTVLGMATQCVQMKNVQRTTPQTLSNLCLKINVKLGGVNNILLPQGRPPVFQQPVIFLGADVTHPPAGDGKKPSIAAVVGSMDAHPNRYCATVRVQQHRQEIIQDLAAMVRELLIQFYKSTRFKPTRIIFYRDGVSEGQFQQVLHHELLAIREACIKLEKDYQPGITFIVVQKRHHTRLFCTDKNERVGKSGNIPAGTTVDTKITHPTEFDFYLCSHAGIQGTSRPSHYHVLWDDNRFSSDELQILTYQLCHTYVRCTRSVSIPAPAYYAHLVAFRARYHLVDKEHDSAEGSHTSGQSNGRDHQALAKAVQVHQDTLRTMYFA
UniProt Q8NDV7: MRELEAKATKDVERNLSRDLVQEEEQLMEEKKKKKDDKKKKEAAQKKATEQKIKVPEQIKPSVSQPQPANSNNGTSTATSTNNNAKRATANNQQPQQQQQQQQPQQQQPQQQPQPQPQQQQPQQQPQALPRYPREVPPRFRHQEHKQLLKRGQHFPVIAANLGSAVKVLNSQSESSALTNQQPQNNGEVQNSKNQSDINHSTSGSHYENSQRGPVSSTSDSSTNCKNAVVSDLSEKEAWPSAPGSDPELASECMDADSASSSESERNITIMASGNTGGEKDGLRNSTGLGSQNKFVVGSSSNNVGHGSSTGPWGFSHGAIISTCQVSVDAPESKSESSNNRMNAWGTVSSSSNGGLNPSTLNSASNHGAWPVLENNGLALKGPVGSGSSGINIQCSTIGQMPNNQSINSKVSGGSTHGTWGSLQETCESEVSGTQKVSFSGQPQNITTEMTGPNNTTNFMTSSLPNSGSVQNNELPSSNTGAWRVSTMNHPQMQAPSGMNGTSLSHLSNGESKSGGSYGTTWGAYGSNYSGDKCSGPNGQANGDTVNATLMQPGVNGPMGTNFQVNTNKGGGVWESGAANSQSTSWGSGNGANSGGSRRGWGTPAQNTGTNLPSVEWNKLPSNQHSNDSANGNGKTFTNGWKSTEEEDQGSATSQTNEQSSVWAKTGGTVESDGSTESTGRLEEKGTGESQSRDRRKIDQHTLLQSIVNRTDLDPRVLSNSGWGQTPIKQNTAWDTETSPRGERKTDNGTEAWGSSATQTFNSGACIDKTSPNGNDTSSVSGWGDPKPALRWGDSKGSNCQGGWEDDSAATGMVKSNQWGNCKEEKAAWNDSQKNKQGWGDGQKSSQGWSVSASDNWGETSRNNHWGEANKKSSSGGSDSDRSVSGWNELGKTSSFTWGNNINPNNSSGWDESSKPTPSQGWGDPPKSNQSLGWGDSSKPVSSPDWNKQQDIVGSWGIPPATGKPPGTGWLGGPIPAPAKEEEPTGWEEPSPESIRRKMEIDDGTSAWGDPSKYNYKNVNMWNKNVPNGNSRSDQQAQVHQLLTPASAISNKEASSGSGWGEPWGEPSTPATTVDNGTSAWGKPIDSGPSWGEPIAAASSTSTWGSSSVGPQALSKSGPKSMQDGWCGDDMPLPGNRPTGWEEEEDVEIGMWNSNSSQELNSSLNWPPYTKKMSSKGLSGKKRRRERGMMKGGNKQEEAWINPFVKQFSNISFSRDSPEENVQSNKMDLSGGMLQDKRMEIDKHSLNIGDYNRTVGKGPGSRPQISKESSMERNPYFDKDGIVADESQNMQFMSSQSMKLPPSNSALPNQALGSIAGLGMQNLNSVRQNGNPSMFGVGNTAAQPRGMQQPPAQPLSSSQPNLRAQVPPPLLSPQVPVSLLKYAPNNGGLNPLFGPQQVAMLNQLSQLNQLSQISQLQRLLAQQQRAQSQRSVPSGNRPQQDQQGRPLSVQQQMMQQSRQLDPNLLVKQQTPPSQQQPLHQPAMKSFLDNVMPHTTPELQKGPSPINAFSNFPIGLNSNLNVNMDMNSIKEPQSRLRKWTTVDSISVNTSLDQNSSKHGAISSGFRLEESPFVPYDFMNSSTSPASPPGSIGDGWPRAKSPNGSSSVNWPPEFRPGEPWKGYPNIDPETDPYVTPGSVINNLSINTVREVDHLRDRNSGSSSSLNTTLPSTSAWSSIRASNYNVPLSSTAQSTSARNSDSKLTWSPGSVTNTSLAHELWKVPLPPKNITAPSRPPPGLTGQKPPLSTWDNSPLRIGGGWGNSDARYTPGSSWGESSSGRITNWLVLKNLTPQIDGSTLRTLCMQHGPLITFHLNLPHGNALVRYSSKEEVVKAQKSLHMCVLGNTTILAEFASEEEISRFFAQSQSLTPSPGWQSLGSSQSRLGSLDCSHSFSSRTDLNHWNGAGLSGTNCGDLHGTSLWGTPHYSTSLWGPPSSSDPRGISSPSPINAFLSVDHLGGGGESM

What was measured:
[1] = molecular target: Argonaute 2 (AGO2) (human (endogenous in hSAECs)) (UniProt Q9UKV8); assay: co-IP
[2] = molecular target: Argonaute 2 (AGO2) (human (endogenous in hSAECs)) (UniProt Q9UKV8); assay: proximity ligation

TNRC6A (GW182) (from UniProt Q8NDV7 1-1962)
binding [1]: binds
binding [2]: binds
